# Experimental data as given in patent US11779628B2, “Use of cell-permeable peptide inhibitors of the JNK signal transduction pathway for the treatment of various diseases” (Xigen Inflammation Ltd., priority 2014, dated 2023).
# Not every detail of the peptide structures is certain; ends, links or a residue may be inferred.
# Key:
# [1] = system: primary mouse cortical neuron cultures; assay: JNK activation and apoptosis in cortical neurons exposed to Aβ42; assay type: cell-based; conditions: 10 μM, Aβ42 2 μM 5 hours
# [2] = system: Mapk14 f/f and Mapk14 Δli* mice; assay: DEN-induced hepatocyte proliferation in Mapk14 deficient mice (Ki67); assay type: in vivo; conditions: 20 mg/kg i.p. before DEN, 48 h
# [3] = system: HCT 116 human colon tumor; assay: Orthotopic HCT 116 human colon tumors in SCID mice; assay type: in vivo
# Method: The objective of this study was to determine the effect of XG-102 on the growth of HCT 116 human colon tumor orthotopically xenografted in SCID mice.
# For XG-102 administration the required amount of XG-102 was dissolved in the vehicle. The formulation was prepared according to the procedure detailed below. Concentrations were calculated and expressed taking into account test item purity and peptide content (multiplier coefficient was 74.6%). […] Diluted solutions were maintained on ice until use. Unused material was discarded. XG-102 was injected once daily at 0.1 and 1 mg/kg/inj. for a total of fourteen consecutive administrations (Q1Dx14). The routes of substance administrations were: injected subcutaneously (SC) at 5 ml/kg/inj., administered per os (PO) to mice by oral gavage via a cannula at 5 ml/kg/adm. The injection and administration volumes were adapted, according to the daily individual body weight of mice.
# Twenty four to Forty-eight hours before tumor induction, 5 SCID mice were irradiated with a γ-source (1.8 Gy, Co^60, INRA, Dijon, France). […]
# Mice were monitored every day throughout the study for behaviour and survival. The body weight and tumor volume was monitored twice a week for all mice throughout the study. […]
# Mice were sacrificed at D26. […] Invasion of liver by tumor nodules was evaluated macroscopically. […]
# [4] = system: Lewis rats, LPS-induced uveitis; assay: Endotoxin-induced uveitis, duration of action after subconjunctival administration; assay type: in vivo, rat; conditions: for EIU clinical score, Median / Inflammatory cells infiltrated into the aqueous humor, Mean ± SEM (n = 20) / Inflammatory cells infiltrated into the aqueous humor, Median / Reduction of clinical scores / Reduction of leucocytes: 20 μg/eye; for Reduction of clinical scores / Reduction of leucocytes: versus vehicle
# [5] = system: primary mouse cortical neuron cultures; assay: JNK activation in cortical neurons exposed to hydrogen peroxide; assay type: cell-based; conditions: 5 μM, H2O2 1 mM 15 minutes
# [6] = both eyes treated 1 day before the induction
# [7] = both eyes treated 2 days before the induction
# [8] = both eyes treated 7 days before the induction
# [9] = both eyes treated 14 days before the induction
# [10] = both eyes treated 21 days before the induction
# [11] = both eyes treated 28 days before the induction
# [12] = both eyes treated on the day of induction, 24 h after LPS
# [13] = both eyes treated on the day of induction
compound,measurement,setting,value
CC(C)C[C@@H](NC(=O)[C@@H](Cc1ccccc1)NC(=O)[C@H]1CCCN1C(=O)[C@@H](CCC(N)=O)NC(=O)[C@H](NC(=O)[C@H]1CCCN1C(=O)[C@@H](CCCNC(=N)N)NC(=O)[C@@H](CO)NC(=O)[C@@H](CCC(N)=O)NC(=O)[C@H](N)CC(=O)O)C(C)C)C(=O)N[C@H](CC(N)=O)C(=O)N[C@H](CC(C)C)C(=O)N[C@@H](C(=O)N[C@@H](C(=O)N1CCC[C@@H]1C(=O)N[C@H](CCCNC(=N)N)C(=O)N[C@H](CCCCN)C(=O)N1CCC[C@@H]1C(=O)N[C@H](CCCNC(=N)N)C(=O)N1CCC[C@@H]1C(=O)N1CCC[C@@H]1C(=O)N[C@H](CCCNC(=N)N)C(=O)N[C@H](CCCNC(=N)N)C(=O)N[C@H](CCCNC(=N)N)C(=O)N[C@H](CCC(N)=O)C(=O)N[C@H](CCCNC(=N)N)C(=O)N[C@H](CCCNC(=N)N)C(=O)N[C@H](CCCCN)C(=O)N[C@H](CCCCN)C(=O)N[C@H](CCCNC(=N)N)C(=O)NCC(=O)O)[C@H](C)O)[C@H](C)O [XG-102],JNK activity (pJNK/JNK),[1],no modification of JNK activity was observed
same,proliferation of hepatocytes (Ki67-positive cells),[2],reverting the overgrowth induced by Mapk14 deletion
same,mice developing more than 1 metastasis in liver,[3]; PO 0.1 mg/kg,25%
same,mice developing more than 1 metastasis in liver,[3]; SC 1 mg/kg,25%
same,"EIU clinical score, Median",[4]; [6],1.5
same,"Inflammatory cells infiltrated into the aqueous humor, Mean ± SEM (n = 20)",[4]; [6],1668 ± 149 cells/μL
same,"Inflammatory cells infiltrated into the aqueous humor, Median",[4]; [6],1540 cells/μL
same,Reduction of clinical scores,[4]; [6],60%
same,Reduction of leucocytes,[4]; [6],48%
same,"EIU clinical score, Median",[4]; [7],2.0
same,"Inflammatory cells infiltrated into the aqueous humor, Mean ± SEM (n = 20)",[4]; [7],1844 ± 232 cells/μL
same,"Inflammatory cells infiltrated into the aqueous humor, Median",[4]; [7],1500 cells/μL
same,Reduction of clinical scores,[4]; [7],55%
same,Reduction of leucocytes,[4]; [7],43%
same,"EIU clinical score, Median",[4]; [8],3.0
same,"Inflammatory cells infiltrated into the aqueous humor, Mean ± SEM (n = 20)",[4]; [8],2878 ± 331 cells/μL
same,"Inflammatory cells infiltrated into the aqueous humor, Median",[4]; [8],2473 cells/μL
same,Reduction of clinical scores,[4]; [8],18%
same,Reduction of leucocytes,[4]; [8],11%
same,"EIU clinical score, Median",[4]; [9],3.0
same,"Inflammatory cells infiltrated into the aqueous humor, Mean ± SEM (n = 20)",[4]; [9],976 ± 143 cells/μL
same,"Inflammatory cells infiltrated into the aqueous humor, Median",[4]; [9],648 cells/μL
same,Reduction of clinical scores,[4]; [9],28%
same,Reduction of leucocytes,[4]; [9],70%
same,"EIU clinical score, Median",[4]; [10],3.0
same,"Inflammatory cells infiltrated into the aqueous humor, Mean ± SEM (n = 20)",[4]; [10],1029 ± 164 cells/μL
same,"Inflammatory cells infiltrated into the aqueous humor, Median",[4]; [10],1023 cells/μL
same,Reduction of clinical scores,[4]; [10],23%
same,Reduction of leucocytes,[4]; [10],68%
same,"EIU clinical score, Median",[4]; [11],4.0
same,"Inflammatory cells infiltrated into the aqueous humor, Mean ± SEM (n = 20)",[4]; [11],1260 ± 263 cells/μL
same,"Inflammatory cells infiltrated into the aqueous humor, Median",[4]; [11],915 cells/μL
same,Reduction of clinical scores,[4]; [11],18%
same,Reduction of leucocytes,[4]; [11],61%
same,"EIU clinical score, Median",[4]; [12],3.0
same,"Inflammatory cells infiltrated into the aqueous humor, Mean ± SEM (n = 20)",[4]; [12],2226 ± 192 cells/μL
same,"Inflammatory cells infiltrated into the aqueous humor, Median",[4]; [12],2005 cells/μL
same,Reduction of clinical scores,[4]; [13],30%
same,Reduction of leucocytes,[4]; [13],31%
same,"clinical score, median",[4]; XG-102 20 μg/eye 1 day before induction,1.5
same,number of infiltrating cells in aqueous humor,"[4]; XG-102 20 μg/eye, Day −28 to Day 0",showed a significantly reduced number of infiltrating cells compared with that of vehicle whatever the delay between treatment and the day of induction
same,change of clinical score compared with vehicle,[4]; XG-102 1 day before induction,−60%
same,reduction of clinical score,[4]; XG-102 14 days before induction,28%
same,duration of activity on the EIU model,[4]; single sub-conjunctival injection,up to 28 days
same,JNK activity (pJNK/JNK),[5],prevented JNK activity when used at 5 μM
